# Measurements from PubChem BioAssay AID1259420 (Broad Institute, 2018).
# The campaign covered roughly 1,000 compounds. About 250 (25%) were called active. Not shown: some 31% with an inconclusive outcome. How the calls were made is not given here. The list shows a part of the results, in another mix than the full data. Measured potencies and affinities stand elsewhere.
# Test: T. gondii intracellular growth, IFN-gamma absent, dose response, cell-based (AID 1259420);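 further: host cells were HeLa; final incubation lasted 72 hours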
# Conditions: Toxoplasma gondii growth in host cells, no IFN-gamma
structure (smiles),measurement,setting,value
COCCN1CC[C@@H]2C[C@H](C(=O)Nc3cccnc3)O[C@@H]2C1,max activity,at 19.5 µM unless noted,inactive: 6.74% [at 0.16 µM]
CC[C@H]1CN2CCC1C[C@@H]2[C@@H](O)c1ccnc2ccc(OC)cc12 (stereo partly specified),max activity,at 19.5 µM unless noted,inactive: 6.76% [at 2.6 µM]
c1cncc(CN2C[C@@H]3COC[C@@]3(Cc3nnc(C4CC4)o3)C2)c1,max activity,at 19.5 µM unless noted,inactive: -15% [at 10 µM]
C=CCOC1C2CCC1N(Cc1cccc(C)n1)CCO2 (stereo unspecified),max activity,at 19.5 µM unless noted,inactive: 11.2%
CCCN(CCC)C1CCc2ccc(O)cc2C1 (stereo unspecified),max activity,at 19.5 µM unless noted,inactive: 9.56% [at 0.16 µM]
Cn1cccc1CN1CC2(CCN(c3ncccn3)C2)C1,max activity,at 19.5 µM unless noted,inactive: 12% [at 1.2 µM]
C/C=C/c1ccc(C2[C@@H]3CN(C(=O)C4CCC4)C[C@H]2N3)cc1 (stereo partly specified),max activity,at 0.075 µM,inactive: -25%
same,max activity,at 0.15 µM,inactive: -11.6%
Cn1cc(C(=O)C(=O)N[C@H]2CN3CCC2CC3)c2ccccc21,max activity,at 19.5 µM unless noted,inactive: 12.4% [at 0.038 µM]
Cc1cccc(CN2CC[C@H]3[C@@H]2CCN3C(=O)NC2CCCC2)n1,max activity,at 19.5 µM unless noted,inactive: 12.8% [at 0.16 µM]
O=C(c1ccnnc1)N1C[C@H]2CN(Cc3cccc(F)c3)C[C@H]2C1,max activity,at 19.5 µM unless noted,inactive: 10.3%
c1cnc(N2CCO[C@H]3CN(Cc4cccs4)C[C@@H]32)nc1,max activity,at 19.5 µM unless noted,inactive: 12.2% [at 2.6 µM]
CCOc1ccccc1-n1c(C(C)N2CCN(C(=O)COc3ccc(Cl)cc3)CC2)nc2ccccc2c1=O (stereo unspecified),max activity,at 19.5 µM unless noted,inactive: -4.16% [at 0.08 µM]
CCO[C@H]1CC[C@@H]2[C@H]1OCCN2Cc1cc(C)on1,max activity,at 19.5 µM unless noted,inactive: -17.1% [at 2.6 µM]
COc1ncccc1CN1CC[C@@H]2C[C@H](c3n[nH]c(C)n3)O[C@H]2C1,max activity,at 19.5 µM unless noted,inactive: -11.3% [at 0.16 µM]
Cn1cc(C(=O)N2CC3(CCN(Cc4cccnc4)C3)C2)cn1,max activity,at 19.5 µM unless noted,inactive: -19.2% [at 0.3 µM]
CC[N+]1(C)CCCC(OC(=O)C(O)(c2ccccc2)c2ccccc2)C1 (stereo unspecified),max activity,at 19.5 µM unless noted,inactive: 9.65%
C[C@]12CC[C@@H](O)C[C@@H]1CC[C@@H]1[C@@H]2CC[C@]2(C)[C@@H](C(=O)CO)CC[C@@H]12,max activity,at 19.5 µM unless noted,inactive: -10.4%
COc1ccc2c(c1)C1(CCN(C(=O)c3ccc(N(C)C)c4ccccc34)CC1)CC2CC(=O)O (stereo unspecified),max activity,at 19.5 µM unless noted,inactive: -19.7% [at 10 µM]
Cc1ncsc1CCCl,max activity,at 19.5 µM unless noted,inactive: 10.2%
O=C(c1cccnc1)N1CCC2(CN(Cc3ccsc3)C2)C1,max activity,at 19.5 µM unless noted,inactive: -10.6% [at 10 µM]

# 2 neighbouring records already listed, quoted:
structure (smiles),measurement,setting,value
c1cnc(N2CCO[C@H]3CN(Cc4cccs4)C[C@@H]32)nc1,max activity,at 19.5 µM unless noted,inactive: 12.2% [at 2.6 µM]
CCOc1ccccc1-n1c(C(C)N2CCN(C(=O)COc3ccc(Cl)cc3)CC2)nc2ccccc2c1=O (stereo unspecified),max activity,at 19.5 µM unless noted,inactive: -4.16% [at 0.08 µM]
